In publication doi:10.1101/2023.05.31.543024:
These are yes or no findings as the source states them, for the method shown. In cells and extracts the contact can be indirect. Some entries that bind do so weakly or less than the wild type. Tags and fused reporters may be left off the sequences shown.

Key:
Experiment in all cases: co-IP
[1] = target: T1, HA-DRG1 L155E + Y262A + D280Y (human) (UniProt Q9Y295)
T1 sequence: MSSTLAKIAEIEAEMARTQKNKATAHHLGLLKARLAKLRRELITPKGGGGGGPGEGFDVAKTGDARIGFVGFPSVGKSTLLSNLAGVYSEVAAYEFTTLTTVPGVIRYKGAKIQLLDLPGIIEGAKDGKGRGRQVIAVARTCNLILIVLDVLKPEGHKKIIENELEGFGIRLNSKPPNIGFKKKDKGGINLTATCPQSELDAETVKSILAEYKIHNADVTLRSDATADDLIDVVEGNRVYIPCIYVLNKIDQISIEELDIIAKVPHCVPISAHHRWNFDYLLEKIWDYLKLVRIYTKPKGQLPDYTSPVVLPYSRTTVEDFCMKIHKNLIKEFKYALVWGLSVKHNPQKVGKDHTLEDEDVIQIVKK

[2] = target: T2, HA-DRG2 A260Y + Y278D (human) (UniProt P55039)
T2 sequence: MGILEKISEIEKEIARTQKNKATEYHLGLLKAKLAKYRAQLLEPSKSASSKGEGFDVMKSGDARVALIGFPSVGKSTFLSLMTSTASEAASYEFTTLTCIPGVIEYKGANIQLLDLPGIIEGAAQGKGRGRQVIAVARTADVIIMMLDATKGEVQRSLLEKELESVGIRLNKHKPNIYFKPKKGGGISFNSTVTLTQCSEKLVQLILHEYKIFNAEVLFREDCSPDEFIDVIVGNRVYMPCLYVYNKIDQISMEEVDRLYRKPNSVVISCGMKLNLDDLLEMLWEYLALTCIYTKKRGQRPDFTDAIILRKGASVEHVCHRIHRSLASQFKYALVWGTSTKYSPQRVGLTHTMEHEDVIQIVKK

[3] = target: T3, HA-DRG2 E153L (human) (UniProt P55039)
T3 sequence: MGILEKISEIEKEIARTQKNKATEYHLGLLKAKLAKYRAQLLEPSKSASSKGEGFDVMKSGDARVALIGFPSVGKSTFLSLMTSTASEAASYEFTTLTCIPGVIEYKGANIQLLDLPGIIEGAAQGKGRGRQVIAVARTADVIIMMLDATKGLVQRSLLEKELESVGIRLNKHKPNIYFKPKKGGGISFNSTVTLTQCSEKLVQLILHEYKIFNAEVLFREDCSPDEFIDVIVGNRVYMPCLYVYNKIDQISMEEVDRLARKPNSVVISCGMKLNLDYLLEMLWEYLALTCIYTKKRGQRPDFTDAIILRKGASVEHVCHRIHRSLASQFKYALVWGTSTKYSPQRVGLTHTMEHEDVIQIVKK

[4] = target: T4, HA-DRG2 ERAKY (E153L + R258I + A260Y + K262V + Y278D) (human) (UniProt P55039)
T4 sequence: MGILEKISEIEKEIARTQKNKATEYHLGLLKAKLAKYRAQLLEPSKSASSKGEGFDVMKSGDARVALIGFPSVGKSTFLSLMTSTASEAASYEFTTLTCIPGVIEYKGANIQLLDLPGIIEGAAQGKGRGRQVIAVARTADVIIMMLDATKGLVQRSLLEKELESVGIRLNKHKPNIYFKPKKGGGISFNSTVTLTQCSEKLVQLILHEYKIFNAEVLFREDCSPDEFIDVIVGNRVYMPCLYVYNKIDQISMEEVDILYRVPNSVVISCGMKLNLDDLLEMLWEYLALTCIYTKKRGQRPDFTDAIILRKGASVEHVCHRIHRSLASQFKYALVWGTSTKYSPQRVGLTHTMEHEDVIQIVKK

[5] = target: T5, HA-DRG2 wildtype (human) (UniProt P55039)
T5 sequence: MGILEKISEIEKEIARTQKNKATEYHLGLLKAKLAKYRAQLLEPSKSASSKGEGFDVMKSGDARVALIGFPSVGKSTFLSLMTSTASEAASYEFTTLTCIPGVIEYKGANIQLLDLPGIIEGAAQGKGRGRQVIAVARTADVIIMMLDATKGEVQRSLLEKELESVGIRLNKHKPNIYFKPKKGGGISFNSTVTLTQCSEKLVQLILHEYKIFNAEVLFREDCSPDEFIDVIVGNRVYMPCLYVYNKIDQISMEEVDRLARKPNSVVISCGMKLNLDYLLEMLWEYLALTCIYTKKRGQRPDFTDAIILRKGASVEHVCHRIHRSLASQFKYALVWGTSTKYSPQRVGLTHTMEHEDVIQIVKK

B1: DRG family regulatory protein 2 (DFRP2), endogenous (protein, UniProt Q9H446 1-243)
chain: MTDYGEEQRNELEALESIYPDSFTVLSENPPSFTITVTSEAGENDETVQTTLKFTYSEKYPDEAPLYEIFSQENLEDNDVSDILKLLALQAEENLGMVMIFTLVTAVQEKLNEIVDQIKTRREEEKKQKEKEAEEAEKQLFHGTPVTIENFLNWKAKFDAELLEIKKKRMKEEEQAGKNKLSGKQLFETDHNLDTSDIQFLEDAGNNVEVDESLFQEMDDLELEDDEDDPDYNPADPESDSAD
binding [1]: binds
binding [2]: no binding
binding [3]: binds
binding [4]: no binding
binding [5]: binds
